Values of other authors as cited in patent publication US12458645B2, “Pediatric powder for oral suspension containing antiviral agent and method for the preparation thereof” (PHARMATHEN S.A., priority 2014, dated 2025).

Conditions: in words

Nc1nc2c(ncn2COCCO)c(=O)[nH]1 [acyclovir, Acyclovir]
solubility in water: poorly water soluble
